The values below come from the supplement of paper PMC10849652.

Amino acid sequences for entries named in this document (tags omitted). A change or cut given only in a name is not applied to a line headed by its entry.
UniProt P50461: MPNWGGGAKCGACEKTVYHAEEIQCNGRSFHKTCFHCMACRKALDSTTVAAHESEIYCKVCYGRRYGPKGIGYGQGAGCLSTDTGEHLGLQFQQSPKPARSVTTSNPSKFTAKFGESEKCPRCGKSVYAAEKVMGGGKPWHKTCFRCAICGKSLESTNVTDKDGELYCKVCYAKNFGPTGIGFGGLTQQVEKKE
UniProt Q8TB03: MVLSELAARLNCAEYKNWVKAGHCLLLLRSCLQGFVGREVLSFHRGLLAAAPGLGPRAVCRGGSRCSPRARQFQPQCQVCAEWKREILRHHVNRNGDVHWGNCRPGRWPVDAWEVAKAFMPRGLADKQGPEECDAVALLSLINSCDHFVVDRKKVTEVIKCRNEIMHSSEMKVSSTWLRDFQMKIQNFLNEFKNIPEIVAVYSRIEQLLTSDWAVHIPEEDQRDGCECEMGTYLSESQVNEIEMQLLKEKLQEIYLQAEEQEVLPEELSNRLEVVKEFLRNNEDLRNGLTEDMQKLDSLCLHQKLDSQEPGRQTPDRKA
UniProt Q8WUE5: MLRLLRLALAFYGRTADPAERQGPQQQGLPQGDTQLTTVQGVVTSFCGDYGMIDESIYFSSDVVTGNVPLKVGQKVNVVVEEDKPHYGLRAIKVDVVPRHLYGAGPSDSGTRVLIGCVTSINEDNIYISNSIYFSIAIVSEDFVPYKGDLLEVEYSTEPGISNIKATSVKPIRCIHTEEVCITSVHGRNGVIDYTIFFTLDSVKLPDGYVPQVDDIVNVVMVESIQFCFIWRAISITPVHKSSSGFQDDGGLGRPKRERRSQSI
UniProt P21291: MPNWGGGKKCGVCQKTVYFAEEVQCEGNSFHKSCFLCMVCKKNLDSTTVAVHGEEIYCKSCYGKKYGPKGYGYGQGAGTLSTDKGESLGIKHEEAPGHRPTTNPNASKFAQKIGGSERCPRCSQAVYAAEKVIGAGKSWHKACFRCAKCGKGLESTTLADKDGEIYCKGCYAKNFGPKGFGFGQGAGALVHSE
UniProt Q13617, whole entry, looked up: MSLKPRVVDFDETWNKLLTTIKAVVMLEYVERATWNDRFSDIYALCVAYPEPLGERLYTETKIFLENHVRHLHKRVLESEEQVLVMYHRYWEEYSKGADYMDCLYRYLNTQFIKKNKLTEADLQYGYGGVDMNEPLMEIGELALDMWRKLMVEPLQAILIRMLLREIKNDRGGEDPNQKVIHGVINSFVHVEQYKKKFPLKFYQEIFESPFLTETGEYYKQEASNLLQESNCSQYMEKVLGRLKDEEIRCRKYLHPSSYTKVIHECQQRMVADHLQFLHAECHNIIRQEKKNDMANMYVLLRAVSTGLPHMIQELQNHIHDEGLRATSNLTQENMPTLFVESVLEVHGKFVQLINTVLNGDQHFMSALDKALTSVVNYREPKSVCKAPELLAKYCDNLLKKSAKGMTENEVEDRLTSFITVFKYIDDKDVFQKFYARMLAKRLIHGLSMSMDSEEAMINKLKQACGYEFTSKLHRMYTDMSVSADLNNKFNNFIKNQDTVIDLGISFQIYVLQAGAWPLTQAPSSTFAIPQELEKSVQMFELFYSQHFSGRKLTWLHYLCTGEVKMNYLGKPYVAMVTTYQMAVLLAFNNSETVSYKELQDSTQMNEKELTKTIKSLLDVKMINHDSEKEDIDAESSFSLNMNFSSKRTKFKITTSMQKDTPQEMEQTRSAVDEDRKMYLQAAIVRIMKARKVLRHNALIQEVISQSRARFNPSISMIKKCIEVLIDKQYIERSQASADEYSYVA
UniProt Q13561, whole entry, looked up: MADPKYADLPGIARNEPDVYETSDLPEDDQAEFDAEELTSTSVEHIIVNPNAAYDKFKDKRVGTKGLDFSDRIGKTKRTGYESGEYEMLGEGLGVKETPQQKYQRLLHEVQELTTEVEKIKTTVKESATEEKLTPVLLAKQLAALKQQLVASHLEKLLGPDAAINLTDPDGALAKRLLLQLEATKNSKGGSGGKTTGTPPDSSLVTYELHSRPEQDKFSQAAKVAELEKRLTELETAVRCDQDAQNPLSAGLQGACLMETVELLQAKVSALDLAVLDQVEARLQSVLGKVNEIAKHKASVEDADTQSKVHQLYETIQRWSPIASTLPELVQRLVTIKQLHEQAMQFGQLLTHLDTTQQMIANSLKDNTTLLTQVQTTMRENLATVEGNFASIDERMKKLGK
UniProt Q9UER7, whole entry, looked up: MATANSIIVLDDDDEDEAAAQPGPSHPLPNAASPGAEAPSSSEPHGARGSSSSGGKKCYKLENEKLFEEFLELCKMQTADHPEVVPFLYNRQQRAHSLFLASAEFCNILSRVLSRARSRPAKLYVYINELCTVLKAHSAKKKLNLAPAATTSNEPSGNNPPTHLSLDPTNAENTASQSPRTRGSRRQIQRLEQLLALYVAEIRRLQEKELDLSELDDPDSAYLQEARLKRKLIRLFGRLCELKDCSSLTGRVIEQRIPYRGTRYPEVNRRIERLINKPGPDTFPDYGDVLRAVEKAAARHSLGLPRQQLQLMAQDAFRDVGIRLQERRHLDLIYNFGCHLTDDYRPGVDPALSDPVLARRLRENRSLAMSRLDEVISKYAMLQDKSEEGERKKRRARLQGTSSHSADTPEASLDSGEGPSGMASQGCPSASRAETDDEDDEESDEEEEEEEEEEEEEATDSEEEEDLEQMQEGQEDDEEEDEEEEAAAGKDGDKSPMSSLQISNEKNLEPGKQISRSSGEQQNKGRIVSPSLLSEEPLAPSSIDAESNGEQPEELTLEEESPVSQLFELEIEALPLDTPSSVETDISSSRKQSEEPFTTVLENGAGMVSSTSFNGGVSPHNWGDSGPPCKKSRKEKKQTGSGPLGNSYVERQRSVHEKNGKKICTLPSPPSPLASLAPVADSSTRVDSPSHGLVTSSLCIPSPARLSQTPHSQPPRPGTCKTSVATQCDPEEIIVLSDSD
UniProt Q9NXE8: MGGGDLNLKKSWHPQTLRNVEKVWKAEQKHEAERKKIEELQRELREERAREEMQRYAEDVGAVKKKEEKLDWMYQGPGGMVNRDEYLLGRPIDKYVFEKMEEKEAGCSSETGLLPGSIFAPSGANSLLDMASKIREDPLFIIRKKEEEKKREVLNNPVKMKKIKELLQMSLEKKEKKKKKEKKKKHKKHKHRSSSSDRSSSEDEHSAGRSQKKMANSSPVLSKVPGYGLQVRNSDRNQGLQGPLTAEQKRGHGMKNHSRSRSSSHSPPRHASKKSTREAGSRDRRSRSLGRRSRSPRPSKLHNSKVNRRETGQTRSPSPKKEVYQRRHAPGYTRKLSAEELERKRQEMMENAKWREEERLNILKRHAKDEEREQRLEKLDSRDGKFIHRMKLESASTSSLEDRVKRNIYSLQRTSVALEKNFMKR
UniProt P08574: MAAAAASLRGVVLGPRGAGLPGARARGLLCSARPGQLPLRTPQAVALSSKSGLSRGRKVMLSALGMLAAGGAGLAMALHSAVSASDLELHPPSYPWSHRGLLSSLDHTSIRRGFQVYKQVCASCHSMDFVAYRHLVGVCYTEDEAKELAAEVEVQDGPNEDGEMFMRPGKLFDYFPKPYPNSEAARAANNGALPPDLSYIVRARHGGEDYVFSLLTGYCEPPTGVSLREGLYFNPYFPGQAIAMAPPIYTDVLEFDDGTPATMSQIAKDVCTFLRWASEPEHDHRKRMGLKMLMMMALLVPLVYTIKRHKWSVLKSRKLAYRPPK
UniProt Q9UJW0, whole entry, looked up: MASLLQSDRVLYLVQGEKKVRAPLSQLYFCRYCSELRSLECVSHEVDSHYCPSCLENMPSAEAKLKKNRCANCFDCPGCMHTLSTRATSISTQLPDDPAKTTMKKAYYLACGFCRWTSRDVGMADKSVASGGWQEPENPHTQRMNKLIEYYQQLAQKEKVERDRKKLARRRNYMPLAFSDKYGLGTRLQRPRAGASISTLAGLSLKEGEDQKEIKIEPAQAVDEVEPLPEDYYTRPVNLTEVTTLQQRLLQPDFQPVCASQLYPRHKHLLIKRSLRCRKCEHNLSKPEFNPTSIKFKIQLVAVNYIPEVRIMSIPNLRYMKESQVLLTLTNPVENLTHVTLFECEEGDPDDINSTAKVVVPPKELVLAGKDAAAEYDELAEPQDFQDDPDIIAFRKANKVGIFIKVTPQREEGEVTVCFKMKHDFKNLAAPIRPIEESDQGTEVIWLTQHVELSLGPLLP
UniProt Q66K64, whole entry, looked up: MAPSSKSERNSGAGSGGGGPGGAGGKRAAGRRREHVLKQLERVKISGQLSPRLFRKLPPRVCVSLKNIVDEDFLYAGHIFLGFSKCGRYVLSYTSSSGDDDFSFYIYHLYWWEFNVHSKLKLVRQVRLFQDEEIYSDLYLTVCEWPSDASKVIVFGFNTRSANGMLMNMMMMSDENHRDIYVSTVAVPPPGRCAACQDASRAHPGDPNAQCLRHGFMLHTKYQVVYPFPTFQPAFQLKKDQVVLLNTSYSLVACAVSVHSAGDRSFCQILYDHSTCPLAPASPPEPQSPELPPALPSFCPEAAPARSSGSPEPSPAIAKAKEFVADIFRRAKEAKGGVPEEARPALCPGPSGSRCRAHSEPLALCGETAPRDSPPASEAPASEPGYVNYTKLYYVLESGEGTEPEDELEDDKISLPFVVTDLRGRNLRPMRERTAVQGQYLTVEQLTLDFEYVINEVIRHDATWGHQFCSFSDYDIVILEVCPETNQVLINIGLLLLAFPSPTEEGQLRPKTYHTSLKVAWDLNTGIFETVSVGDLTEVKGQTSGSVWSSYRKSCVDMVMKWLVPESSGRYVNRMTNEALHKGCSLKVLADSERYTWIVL
UniProt Q92564: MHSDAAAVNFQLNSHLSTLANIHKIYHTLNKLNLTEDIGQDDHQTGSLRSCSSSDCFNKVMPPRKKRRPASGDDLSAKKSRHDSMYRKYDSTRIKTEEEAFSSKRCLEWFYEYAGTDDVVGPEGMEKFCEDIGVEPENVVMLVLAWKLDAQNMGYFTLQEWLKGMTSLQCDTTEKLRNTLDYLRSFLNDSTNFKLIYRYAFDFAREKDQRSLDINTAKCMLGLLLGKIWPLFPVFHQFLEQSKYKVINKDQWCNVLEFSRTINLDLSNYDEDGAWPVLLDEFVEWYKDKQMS
UniProt E9PJD7, whole entry, looked up: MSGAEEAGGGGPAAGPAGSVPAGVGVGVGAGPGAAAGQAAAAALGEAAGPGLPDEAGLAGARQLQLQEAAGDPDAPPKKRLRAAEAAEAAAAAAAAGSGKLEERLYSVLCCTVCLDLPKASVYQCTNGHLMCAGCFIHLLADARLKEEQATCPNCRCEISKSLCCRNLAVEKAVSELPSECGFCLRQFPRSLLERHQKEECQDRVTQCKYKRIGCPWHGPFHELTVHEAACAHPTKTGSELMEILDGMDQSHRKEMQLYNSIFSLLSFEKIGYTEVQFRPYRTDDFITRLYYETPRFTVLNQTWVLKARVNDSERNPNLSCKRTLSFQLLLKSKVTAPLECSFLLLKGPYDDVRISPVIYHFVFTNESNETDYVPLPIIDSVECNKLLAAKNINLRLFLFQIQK
UniProt Q8NA75: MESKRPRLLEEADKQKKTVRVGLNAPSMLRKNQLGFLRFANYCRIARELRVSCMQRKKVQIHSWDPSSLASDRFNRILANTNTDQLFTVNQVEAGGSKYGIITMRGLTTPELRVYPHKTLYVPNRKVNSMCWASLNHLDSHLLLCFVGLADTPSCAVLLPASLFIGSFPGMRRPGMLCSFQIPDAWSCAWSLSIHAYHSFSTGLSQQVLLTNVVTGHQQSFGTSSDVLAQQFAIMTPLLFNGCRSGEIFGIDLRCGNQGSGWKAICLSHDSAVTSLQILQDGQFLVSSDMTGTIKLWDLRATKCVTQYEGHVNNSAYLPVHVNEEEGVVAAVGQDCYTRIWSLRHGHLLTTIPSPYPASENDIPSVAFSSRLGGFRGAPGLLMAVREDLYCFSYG
UniProt Q9H1C7: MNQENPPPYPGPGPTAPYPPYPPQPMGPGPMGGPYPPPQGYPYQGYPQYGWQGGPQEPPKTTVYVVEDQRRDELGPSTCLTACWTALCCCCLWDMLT
UniProt P49711: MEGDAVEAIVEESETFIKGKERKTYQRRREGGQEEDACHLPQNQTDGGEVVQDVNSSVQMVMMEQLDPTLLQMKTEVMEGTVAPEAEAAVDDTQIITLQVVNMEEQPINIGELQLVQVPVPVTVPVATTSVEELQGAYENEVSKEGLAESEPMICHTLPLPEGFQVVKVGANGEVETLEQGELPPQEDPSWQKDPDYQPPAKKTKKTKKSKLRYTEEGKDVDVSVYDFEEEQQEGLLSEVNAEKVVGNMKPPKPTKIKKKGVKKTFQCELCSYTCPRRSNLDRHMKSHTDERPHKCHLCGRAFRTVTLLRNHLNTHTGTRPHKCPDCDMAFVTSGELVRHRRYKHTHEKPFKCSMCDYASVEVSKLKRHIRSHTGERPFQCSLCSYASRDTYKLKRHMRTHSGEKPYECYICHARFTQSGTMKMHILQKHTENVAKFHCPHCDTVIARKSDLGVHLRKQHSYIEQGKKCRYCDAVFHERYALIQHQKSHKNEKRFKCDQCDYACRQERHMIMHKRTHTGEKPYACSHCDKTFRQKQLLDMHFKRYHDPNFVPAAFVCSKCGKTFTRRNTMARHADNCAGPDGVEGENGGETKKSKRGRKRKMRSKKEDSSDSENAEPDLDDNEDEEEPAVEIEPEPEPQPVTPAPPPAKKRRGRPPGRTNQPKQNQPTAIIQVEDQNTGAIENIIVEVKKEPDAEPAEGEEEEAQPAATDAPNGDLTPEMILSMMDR

The other results are listed elsewhere or left out.

Compound in this assay: NC(=O)Nc1cc(-c2cccc(F)c2)sc1C(=O)N[C@H]1CCCNC1
Description: log2 fold change, soluble protein after heating vs DMSO (PISA); higher = thermal stabilisation; K562 cells, 10 uM, 30 min; active = over 0.2 and 3.5 SD of the protein, either way, in both replicates (recomputed). The essentials:
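Values are thermal stability changes relative to control samples and are taken from duplicates. They are stated as log2 fold changes. Before quantification by TMTpro 16plex LC-MS/MS with equalised channel sums, K562 cells at 2×10^6 cells/mL were treated with 10 μM compound for 30 min, heated in aliquots for 3 min across 48°C-58°C, pooled, extracted in PBS with 0.5% NP-40 at 4°C, and centrifuged at 21,000xg for 90 min to give the soluble supernatant.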
In the case of CWC15 (UniProt Q9P013), the log2 fold change is inactive: 0.036.
For CT45A5 (UniProt P0DMU8) the value was inactive: 0.053.
For CT45A10 (UniProt P0DMU9) the value was inactive: 0.056; for DCP1A (UniProt Q9NPI6), inactive: -0.157.
For CSRP3 (UniProt P50461), the log2 fold change was inactive: -0.033.
The same measure for DCP2 (UniProt Q8IU60): inactive: -0.076; for CYP46A1 (UniProt Q9Y6A2): inactive: -0.262.
The same measure for CXorf38 (UniProt Q8TB03): inactive: -0.066; for CT55 (UniProt Q8WUE5): inactive: -0.015.
For CTH (UniProt P32929) the value was inactive: 0.074.
CUL1 (UniProt Q13616): the log2 fold change was inactive: 0.002.
On to CTDNEP1 (UniProt O95476), for which the log2 fold change was inactive: -0.076.
As to CUTC (UniProt Q9NTM9), the log2 fold change is inactive: 0.047.
Take CSRP1 (UniProt P21291): the log2 fold change was inactive: -0.012.
For CUL2 isoform 2 (UniProt Q13617) the value was inactive: 0.017; for DCTN2 isoform 2 (UniProt Q13561), inactive: -0.011; for DCAF1 (UniProt Q9Y4B6), inactive: -0.04.
The same measure for DAXX (UniProt Q9UER7): inactive: 0.093; for CWC25 (UniProt Q9NXE8): inactive: 0.024.
The same measure for CXXC1 isoform 2 (UniProt Q9P0U4): inactive: 0.003; for CYP2S1 isoform 2 (UniProt Q96SQ9): inactive: -0.064; for CYC1 (UniProt P08574): inactive: 0.032.
Consider DCTN4 (UniProt Q9UJW0), for which the log2 fold change was inactive: 0.102.
Consider CSRP2 (UniProt Q16527), for which the log2 fold change is inactive: -0.025.
The same measure for CUL4A (UniProt Q13619): inactive: -0.02; for DCTN5 (UniProt Q9BTE1): inactive: -0.001.
The same measure for CTTN (UniProt Q14247): inactive: 0.009; for CYB561A3 isoform 2 (UniProt Q8NBI2): inactive: -0.019; for CSTF2T (UniProt Q9H0L4): inactive: 0.005.
Turning to DCAF15 (UniProt Q66K64), the log2 fold change is inactive: -0.05.
The same measure for DCUN1D4 isoform 3 (UniProt Q92564): inactive: -0.054; for DAD1 (UniProt P61803): inactive: 0.021; for CYHR1 (UniProt E9PJD7): inactive: -0.029.
On to CUSTOS (UniProt Q96C57), for which the log2 fold change was inactive: 0.064.
For DCAF4L2 (UniProt Q8NA75) the value was inactive: 0.019; for CYSTM1 (UniProt Q9H1C7), inactive: 0.013; for CTNNA1 isoform 2 (UniProt P35221), inactive: -0.021.
For the target CTCF (UniProt P49711), the log2 fold change is inactive: 0.086.
DAGLB (UniProt Q8NCG7): the log2 fold change is inactive: 0.027.
